Data as given in PubChem BioAssay AID1259424 (University of Nebraska Medical Center, 2018)

- Aim: 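Find knockdowns that reproduce the expression shifts seen after KSR1 loss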 (primary screen)
- Cells: human HCT116 colon cancer cells
- Knock-down reagent: siRNA pool against human genes, 50 nM
- Read-out: 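Log2 levels of six mRNAs (branched-DNA multiplex), adjusted by two reference genes and the non-targeting median, then scored against the average KSR1 knockdown pattern as Pearson r and euclidean distance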
- Reading the numbers: mean correlation with KSR1 profile and KSR1 correlation: higher = expression change more like KSR1 knockdown; mean distance from KSR1 profile: higher = expression change less like KSR1 knockdown
In all, the deposit lists about 14,000 reagents; below is an unselected part. 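Higher correlation or smaller distance means closer resemblance to KSR1 loss; control wells, including KSR1 knockdowns, recur on many plates.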 Not stated in the record: the time to read-out.

Target gene,mean correlation with KSR1 profile,mean distance from KSR1 profile,"KSR1 correlation, replicate 1","KSR1 correlation, replicate 2","KSR1 correlation, replicate 3"
ARL15,-0.513,4.95,-0.223,-0.398,0.182
MYH1,0.332,1.83,0.453,0.184,0.0824
PPP1CA,-0.63,1.54,-0.597,-0.742,-0.38
CLASP1,0.0332,3.56,-0.0306,0.173,-0.0298
RFX2,0.496,1.74,0.618,0.733,0.258
C10orf1 (retired record),-0.389,2.17,-0.0413,-0.631,-0.122
COPB2,-0.215,4.59,-0.215,-0.0763,-0.483
RABL6,-0.28,1.55,-0.135,-0.528,0.25
CNTNAP4,0.914,1.11,0.856,0.858,0.829
EEF1G,0.282,1.94,0.307,0.253,0.149
AFP,-0.0428,1.29,0.0369,-0.0304,0.063
FAM186B,0.309,2.01,0.132,0.236,0.457
ST13,-0.125,1.68,-0.648,-0.00381,0.491
CSRNP1,0.0885,2.27,-0.0595,-0.0912,0.257
CELSR1,0.738,1.74,0.587,0.835,0.628
SARDH,0.623,2.26,0.646,0.623,0.586
GMCL2,-0.0563,1.28,0.192,-0.394,-0.537
OTUD5,-0.487,2.56,-0.224,-0.641,-0.652
TRIM33,-0.0855,1.73,-0.371,-0.0205,-0.118
KIF27,-0.33,3.07,-0.301,-0.423,-0.372
ACOT9,0.0816,1.95,0.35,0.0599,-0.058
CXCL12,0.288,2.36,0.187,0.44,0.107
CENPC,-0.404,3,-0.243,-0.294,-0.478
TRIM39,-0.0371,2.03,0.198,-0.137,-0.421
RPL3,0.0415,1.88,-0.0679,-0.316,0.156
FZD10,0.804,1.3,0.79,0.761,0.799
ETV5,-0.127,1.61,-0.217,-0.178,-0.265
EQTN,-0.417,2.29,-0.308,-0.31,-0.46
ATP6V1E1,-0.451,3.67,-0.446,-0.381,-0.566
CEBPG,0.283,1.79,0.418,0.339,0.381

3 entries from above, showing only “mean distance from KSR1 profile”:
CELSR1	1.74
SARDH	2.26
GMCL2	1.28

Continued:
Target gene,mean correlation with KSR1 profile,mean distance from KSR1 profile,"KSR1 correlation, replicate 1","KSR1 correlation, replicate 2","KSR1 correlation, replicate 3"
ODAM,-0.694,2.75,-0.58,-0.618,-0.628
MECP2,-0.214,2.77,-0.0408,-0.231,-0.211
SOX6,0.305,2.73,0.371,0.124,0.289
SON,-0.0469,4.68,-0.189,-0.492,0.0866
PLCG1,0.0995,1.08,0.317,0.036,-0.0693
RAB11FIP2,-0.252,3.18,-0.37,-0.11,-0.328
ANP32B,-0.409,1.38,-0.188,-0.738,-0.499
STUB1,0.205,1.27,0.0168,0.274,-0.00429
SAC3D1,-0.0998,1.72,-0.59,-0.299,-0.289
ZBTB6,-0.251,3.43,0.251,-0.137,-0.48
RAB4A,-0.368,4.15,-0.4,-0.329,-0.32
NUDT1,0.323,3.42,0.373,0.272,0.297
RUVBL2,-0.32,2.9,-0.385,-0.341,-0.414
CHRAC1,0.558,3.5,0.636,0.543,0.398
KLHL9,-0.362,2.45,-0.52,-0.618,-0.169
GDE1,-0.291,2.8,-0.164,-0.422,-0.368
SEMG2,0.337,2.07,0.278,0.404,0.298
BID,-0.383,2.3,-0.217,-0.514,-0.395
GSTP1,-0.21,1.2,-0.0241,-0.307,-0.587
ROS1,0.0268,2.24,0.102,-0.382,0.212
BOLL,-0.372,2.74,-0.34,-0.483,-0.411
FOXRED1,0.352,2.51,0.239,0.414,0.233
DCC,-0.753,2.16,-0.718,-0.709,-0.913
MS4A5,0.366,1.63,0.392,0.219,0.247
TKFC,-0.00944,2.27,-0.0476,-0.228,-0.144
MMGT1,-0.0476,1.55,0.00754,-0.293,0.152
NEK3,0.878,1.89,0.832,0.884,0.892
MYF6,0.0257,1.7,0.0363,0.275,-0.0995
RENBP,-0.75,2.45,-0.771,-0.647,-0.828
DHTKD1,-0.653,2.5,-0.402,-0.659,-0.641
SNRNP40,-0.304,1.97,-0.141,-0.322,-0.215
SLC30A3,-0.571,2.06,-0.427,-0.497,-0.626
ATAD3A,-0.0752,3.32,-0.0476,-0.301,-0.1
